The results in this text go back to patent publication US20170320950A1.

The target of the test is cynomolgus VISTA extracellular domain (cynomolgus). The experiment in a line: ELISA. Background: An ELISA detects its analyte on a solid surface through an enzyme-linked reagent.

Results are given in words; binding and its absence hold for the method and conditions named. Binding can be weak; no strength is given.

B1: VSTB95 (antibody, human IgG1, kappa, V domains shown)
VH: EVQLVESGGGLVQPGGSLRLSCAASGFTFRNYGMSWVRQAPGKGLEWVASIISGGSYTYYPDSVKGRFTISRDNAKNSLYLQMNSLRAEDTAVYYCARIYDHDGDYYAMDYWGQGTTVTVSS
VL: DIVMTQSPLSLPVTPGEPASISCRSSQSIVHSNGNTYLEWYLQKPGQSPQLLIYKVSNRFSGVPDRFSGSGSGTDFTLKISRVEAEDVGVYYCFQGSHVPWTFGQGTKLEIKR
As to B1, the binding result is reported as “binds”.

B2: VSTB53 (antibody, human IgG1, kappa, V domains shown)
VH: QVQLVQSGAEVKKPGASVKVSCKASGYTFTHYTIHWVRQAPGQGLEWMGYIIPSSGYSEYNQKFKDRVTMTRDTSTSTVYMELSSLRSEDTAVYYCARGAYDDYYDYYAMDYWGQGTLVTVSS
VL: DIVMTQSPLSLPVTPGEPASISCRSSQTIVHSNGNTYLEWYLQKPGQSPQLLIYKVSNRFSGVPDRFSGSGSGTDFTLKISRVEAEDVGVYYCFQASHVPWTFGQGTKLEIKR
Regarding B2, the binding entry is “binds”.

B3: VSTB50 (antibody, human IgG1, kappa, V domains shown)
VH: QVQLVQSGSELKKPGASVKVSCKASGYTFTNYGLNWVRQAPGQGLEWMGWINPYTGEPTYADDFKGRFVFSLDTSVSTAYLQICSLKAEDTAVYYCAREGYGNYIFPYWGQGTLVTVSS
VL: DIVMTQTPLSLSVTPGQPASISCRASESVDTYANSLMHWYLQKPGQPPQLLIYRASNLESGVPDRFSGSGSGTDFTLKISRVEAEDVGVYYCQQTNEDPRTFGQGTKLEIKR
With B3, the binding entry is given as “binds”.

B4: VSTB60 (antibody, human IgG1, kappa, V domains shown)
VH: QVQLVQSGSELKKPGASVKVSCKASGYTFTNYGMTWVRQAPGQGLEWMGWINTYTGESTYADDFKGRFVFSLDTSVSTAYLQICSLKAEDTAVYYCARDYYGIYVSAYWGQGTLVTVSS
VL: DIVMTQTPLSLSVTPGQPASISCRASESVDNYANSFMHWYLQKPGQSPQLLIYRASNLESGVPDRFSGSGSGTDFTLKISRVEAEDVGVYYCQQSHEDPYTFGQGTKLEIKR
For the molecule B4, the binding result is “binds”.
